For the assay, the system named is Trichuris muris adult worms. Put plainly: median motility score (Paragon pixel variance) of adult worms (arbitrary units); higher = more motile worms. The settings on record: 24 h.

This is one part of the list. Many values rest on one well or one pass, so single values are uncertain.

As for `CCCCCCCCCCCCCCCCCCCCCCO` [docosanol], the median motility score (20 µM) worked out at 2070, the median motility score (50 µM) turned out to be 4280 and the median motility score (100 µM) came to 3850.

For `C(=C1NCCN1)c1cccc2ccccc12.Cl` [naphazoline hydrochloride], the median motility score amounted to 2810 (20 µM), 3120 (50 µM) and 3480 (100 µM).

Regarding `CC(C)(O)c1ccccc1CC[C@@H](SCC1(CC(=O)[O-])CC1)c1cccc(/C=C/c2ccc3ccc(Cl)cc3n2)c1.[Na+]` [montelukast sodium], the median motility score is, setting by setting: (20 µM) 617; (50 µM) 3720; (100 µM) 1470.

Turning to `COc1cc(NC(C)CCCN)c2ncccc2c1` (stereo unspecified) [primaquine], the median motility score reads like this: (20 µM) 3320; (50 µM) 2100; (100 µM) 4320.

`CCCCOCCOCCOCc1cc2c(cc1CCC)OCO2` [piperonyl butoxide] gave a median motility score (20 µM) of 1030, a median motility score (50 µM) of 3720 and a median motility score (100 µM) of 2110.

In the case of `NS(=O)(=O)c1cc(C2(O)NC(=O)c3ccccc32)ccc1Cl` (stereo unspecified) [chlorthalidone], the median motility score is 858 (20 µM), 4320 (50 µM) and 4000 (100 µM).

Turning to `CN(C)CCOC(C)(c1ccccc1)c1ccccn1` (stereo unspecified) [doxylamine], the median motility score amounted to 4480 (20 µM), 4420 (50 µM) and 3820 (100 µM).

Turning to `CC(CN(C)C)CN1c2ccccc2CCc2ccccc21.O=C(O)/C=C/C(=O)O` (stereo unspecified) [trimipramine fumarate], the median motility score (20 µM) came to 2200, the median motility score (50 µM) amounted to 1880 and the median motility score (100 µM) was determined as 1040.

For `CC(C)NCC(O)COc1ccc(CC(N)=O)cc1` (stereo unspecified) [atenolol], the median motility score runs as follows: (20 µM) 1990; (50 µM) 3760; (100 µM) 3780.

Take `Cc1ccc(O)c([C@H](CCN(C(C)C)C(C)C)c2ccccc2)c1` [tolterodine]: the median motility score runs as follows: (20 µM) 1830; (50 µM) 2850; (100 µM) 1870.

For `Cc1cc(C)cc(OCC2CNC(=O)O2)c1` (stereo unspecified) [metaxalone], the median motility score by setting is: (20 µM) 1790; (50 µM) 2710; (100 µM) 2290.

Turning to `CCCCCCCCCc1ccc(OCCOCCOCCOCCOCCOCCOCCOCCOCCO)cc1` [nonoxynol 9], the median motility score is, setting by setting: (20 µM) 3010; (50 µM) 2340; (100 µM) 0.

For the origin of these results see the supplement of paper PMC10503962.
